# Source: patent US20210122813A1 (Kyowa Kirin, published 2021)
# These are yes or no findings as the source states them, for the method shown. Some entries that bind do so weakly or less than the wild type.
# T1: human BMP9/BMP10 heterodimer present in human serum (human) (UniProt O95393)
# T1 sequence 1: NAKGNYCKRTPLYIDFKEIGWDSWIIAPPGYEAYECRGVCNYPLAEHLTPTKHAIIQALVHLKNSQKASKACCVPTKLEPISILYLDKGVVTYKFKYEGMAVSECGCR
# T1 sequence 2: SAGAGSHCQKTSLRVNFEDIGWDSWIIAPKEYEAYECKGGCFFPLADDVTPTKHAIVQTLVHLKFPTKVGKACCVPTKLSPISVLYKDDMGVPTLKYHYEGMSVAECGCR
# T2: human BMP10 mature dimer (manufactured by R & D Systems, Inc., Cat #2926-BP) (human) (UniProt O95393)
# T2 sequence: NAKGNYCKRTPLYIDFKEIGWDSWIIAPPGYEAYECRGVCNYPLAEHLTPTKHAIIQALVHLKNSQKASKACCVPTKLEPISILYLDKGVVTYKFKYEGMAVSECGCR
# Experiments:
# [1] = target: T1, human BMP9/BMP10 heterodimer present in human serum (human); experiment: sandwich ELISA: 10D5 immobilized, human serum 1-16%, detection with biotinylated 12H3 antibody
# [2] = target: T1, human BMP9/BMP10 heterodimer present in human serum (human); experiment: sandwich ELISA: biotinylated 12H3 (50 ng/mL) detects the material captured from human serum (0-16%) by immobilized anti-BMP9 antibody 10D5
# [3] = target: T2, human BMP10 mature dimer (manufactured by R & D Systems, Inc., Cat #2926-BP) (human); experiment: SPR (Biacore T100)
binding [1],binding [2],binding [3],Binder
binds,binds,,"12H3 antibody (antibody, V domains shown) VH: QVQLKETGPDLVQLTQTLSITCTVSGFSLSTYNVHWVRQPPGKGLEWMGAMWNGGGINYNSAFKSRLSISRDTSKSQVFLKMNSLQTDDTAKYFCARFGYGFDYWGQGVMVTVSS VL: ETVMTQSPTSMSTSIGERVTLNCKASQSVGINVDWYQRTPGQSPKLLIHGASNRHTGVPDRFTGSGFGRDFTLTISNVEAEDLTIYYCLQYGSIPLTFGAGTKLELI"
,,binds,"12H3 chimeric antibody (antibody, V domains shown, also called ch12H3 antibody) VH: QVQLKETGPDLVQLTQTLSITCTVSGFSLSTYNVHWVRQPPGKGLEWMGAMWNGGGINYNSAFKSRLSISRDTSKSQVFLKMNSLQTDDTAKYFCARFGYGFDYWGQGVMVTVSS VL: ETVMTQSPTSMSTSIGERVTLNCKASQSVGINVDWYQRTPGQSPKLLIHGASNRHTGVPDRFTGSGFGRDFTLTISNVEAEDLTIYYCLQYGSIPLTFGAGTKLELI"
